Assay results published in publication PMC11845855.
Results are given in words; binding and its absence hold for the method and conditions named. Binding seen in cells or lysates may run through a third protein. Some results given as binding are weak or reduced against the parent protein; the word gives no strength. Tags and fused reporters may be left off the sequences shown.

Sequences of proteins named here, by UniProt entry; tags and fusion partners are left off.
UniProt Q8R4B8: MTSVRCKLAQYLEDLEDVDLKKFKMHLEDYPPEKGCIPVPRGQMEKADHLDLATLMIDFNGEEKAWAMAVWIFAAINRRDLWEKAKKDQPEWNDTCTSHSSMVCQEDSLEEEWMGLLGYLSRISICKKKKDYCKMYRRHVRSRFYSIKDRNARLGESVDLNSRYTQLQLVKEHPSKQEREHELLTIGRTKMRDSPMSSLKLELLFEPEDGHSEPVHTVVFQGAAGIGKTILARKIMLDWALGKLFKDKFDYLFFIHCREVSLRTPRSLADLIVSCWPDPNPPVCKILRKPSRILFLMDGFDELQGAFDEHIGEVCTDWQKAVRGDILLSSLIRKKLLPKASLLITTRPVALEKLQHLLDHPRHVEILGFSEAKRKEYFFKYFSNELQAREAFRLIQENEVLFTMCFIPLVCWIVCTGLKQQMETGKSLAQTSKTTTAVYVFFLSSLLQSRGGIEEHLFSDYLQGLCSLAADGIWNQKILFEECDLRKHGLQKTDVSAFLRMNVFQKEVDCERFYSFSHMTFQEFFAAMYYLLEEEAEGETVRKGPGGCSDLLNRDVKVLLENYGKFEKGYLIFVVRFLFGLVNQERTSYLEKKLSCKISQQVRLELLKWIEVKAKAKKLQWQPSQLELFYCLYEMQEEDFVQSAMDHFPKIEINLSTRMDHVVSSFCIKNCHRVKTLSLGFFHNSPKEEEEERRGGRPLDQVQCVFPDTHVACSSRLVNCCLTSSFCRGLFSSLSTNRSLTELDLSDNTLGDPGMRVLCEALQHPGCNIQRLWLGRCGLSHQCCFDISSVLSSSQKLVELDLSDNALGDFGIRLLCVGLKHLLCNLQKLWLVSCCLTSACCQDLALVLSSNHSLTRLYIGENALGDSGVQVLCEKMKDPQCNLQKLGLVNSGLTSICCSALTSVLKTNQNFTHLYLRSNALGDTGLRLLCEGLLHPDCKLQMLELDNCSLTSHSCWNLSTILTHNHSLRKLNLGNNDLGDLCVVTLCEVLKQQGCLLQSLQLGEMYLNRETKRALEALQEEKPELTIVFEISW

T1: Flag-USP25 (ubiquitin-specific protease 25), expressed in NIH/3T3 cells (UniProt P57080)
T1 sequence: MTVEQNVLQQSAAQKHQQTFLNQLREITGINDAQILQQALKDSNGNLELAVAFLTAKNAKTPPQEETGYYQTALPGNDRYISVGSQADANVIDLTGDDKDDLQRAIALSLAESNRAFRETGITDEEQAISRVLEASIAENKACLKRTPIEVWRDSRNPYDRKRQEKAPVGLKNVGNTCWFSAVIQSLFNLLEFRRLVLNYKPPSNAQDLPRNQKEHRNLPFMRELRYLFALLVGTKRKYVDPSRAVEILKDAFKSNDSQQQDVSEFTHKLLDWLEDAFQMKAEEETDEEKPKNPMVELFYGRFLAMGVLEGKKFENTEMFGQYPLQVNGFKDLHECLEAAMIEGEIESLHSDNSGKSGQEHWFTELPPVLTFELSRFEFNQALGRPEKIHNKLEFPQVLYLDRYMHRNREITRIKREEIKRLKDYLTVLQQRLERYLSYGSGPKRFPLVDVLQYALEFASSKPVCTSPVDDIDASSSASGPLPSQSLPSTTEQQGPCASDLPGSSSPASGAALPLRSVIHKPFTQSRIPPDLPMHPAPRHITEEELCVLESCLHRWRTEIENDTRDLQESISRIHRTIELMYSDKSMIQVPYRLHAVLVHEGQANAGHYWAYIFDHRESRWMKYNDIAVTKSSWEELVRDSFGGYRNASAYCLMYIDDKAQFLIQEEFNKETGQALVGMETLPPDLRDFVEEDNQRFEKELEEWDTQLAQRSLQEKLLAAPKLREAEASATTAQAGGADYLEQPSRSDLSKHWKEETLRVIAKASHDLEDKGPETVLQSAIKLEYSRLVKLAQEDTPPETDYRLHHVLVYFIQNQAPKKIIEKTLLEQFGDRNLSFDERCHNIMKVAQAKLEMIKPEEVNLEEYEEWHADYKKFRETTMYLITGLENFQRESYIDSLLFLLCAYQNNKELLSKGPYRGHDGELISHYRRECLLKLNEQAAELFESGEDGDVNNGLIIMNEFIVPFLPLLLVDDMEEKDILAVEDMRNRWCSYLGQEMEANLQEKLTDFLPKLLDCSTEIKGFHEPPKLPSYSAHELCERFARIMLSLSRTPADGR

T2: Flag-USP25 (ubiquitin-specific protease 25), expressed in neonatal rat primary cardiomyocytes (UniProt P57080)
T2 sequence: T1 sequence

B1: Flag-USP25 (ubiquitin-specific protease 25), expressed in NIH/3T3 cells (enzyme, UniProt P57080 1-1055)
chain: T1 sequence

Assays:
[1] = molecular target: T1, Flag-USP25 (ubiquitin-specific protease 25), expressed in NIH/3T3 cells; assay: co-IP; NIH/3T3 cells co-transfected with wild-type or domain deletion constructs of NLRP3 (HA-His) or USP25 (Flag) and the partner; IP with anti-Flag antibody, western blot
[2] = molecular target: T2, Flag-USP25 (ubiquitin-specific protease 25), expressed in neonatal rat primary cardiomyocytes; assay: co-IP; NRPCs co-transfected with USP25 and NLRP3 plasmids, with or without H/R; IP with anti-Flag antibody, western blot
[3] = molecular target: His-NLRP3, expressed in NIH/3T3 cells (UniProt Q8R4B8); assay: co-IP; NIH/3T3 cells co-transfected with Flag-USP25 and His-NLRP3; IP with anti-His antibody, western blot

Molecule	binding [1]	also measured
HA-His-wt-NLRP3, expressed in NIH/3T3 cells (from UniProt Q8R4B8 1-1033)	binds	
His-NLRP3, expressed in NIH/3T3 cells (from UniProt Q8R4B8 1-1033)	binds	
NLRP3 expressed from plasmid in neonatal rat primary cardiomyocytes (from UniProt Q8R4B8 1-1033)		binding [2]: binds
B1		binding [3]: binds
